Data as given in PubChem BioAssay AID504793 (Drosophila RNAi Screening Center, 2011).
Assay: 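Genes required for cells to halt at G2/M after double-strand DNA breaks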 (primary screen). Cell system: Drosophila S2R+ cells. Reagent: long dsRNA against Drosophila genes, about 0.25 µg dsRNA per well. Time to read-out: 4 days of dsRNA, then 4 hours of drug before read-out. Treatment: doxorubicin 0.5 µM for 4 hours to cause double-strand breaks, in cells also given a low, harmless dose of dsRNA against nbs to sensitise the assay. Read-out: 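Mitotic index as the number of phospho-histone H3-positive cells in each well following doxorubicin, given as raw counts without normalisation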. Direction: mitotic cells: higher = more cells in mitosis, weaker G2 arrest. Hit rule: 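a call needs confirmation in secondary tests, with other dsRNAs and a check of mitotic timing without damage, not just a high primary count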. Calls: active = confirmed in follow-up tests; inactive = not confirmed.
The deposit covers about 23,000 reagents; this is a random part of those that have a named target and a result. Of all reagents, 62 (0.27%) were called active. 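Calls come from follow-up tests whose scores are not deposited, so confirmed genes may have low counts here; counts are not normalised per plate.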 Raw values vary from plate to plate and are shown uncorrected. Unmarked entries are inactive. Reagents against one gene are numbered here. A plus sign joins genes that one reagent is predicted to hit.

The opening 3 entries, ahead of the listing:
Rab21 #1: mitotic cells, replicate 1 = 10
Rab21 #2: mitotic cells, replicate 1 = 1
CG5043 #1: mitotic cells, replicate 1 = 4

The list itself, from the first entry:
Rab21 #1: mitotic cells, replicate 1 = 10
Rab21 #2: mitotic cells, replicate 1 = 1
CG5043 #1: mitotic cells, replicate 1 = 4
CG5043 #2: mitotic cells, replicate 1 = 14
CG14196 #1: mitotic cells, replicate 1 = 8
CG14196 #2: mitotic cells, replicate 1 = 3
PolrMT: mitotic cells, replicate 1 = 4
CG15345 (retired record) #1: mitotic cells, replicate 1 = 16
CG15345 (retired record) #2: mitotic cells, replicate 1 = 8
Spred #1: mitotic cells, replicate 1 = 5
Spred #2: mitotic cells, replicate 1 = 6
Mf: mitotic cells, replicate 1 = 6
CG6254: mitotic cells, replicate 1 = 6
Gp150 #1: mitotic cells, replicate 1 = 7
Gp150 #2: mitotic cells, replicate 1 = 6
Mhc #1: mitotic cells, replicate 1 = 1
Mhc #2: mitotic cells, replicate 1 = 3
gukh #1: mitotic cells, replicate 1 = 5
gukh #2: mitotic cells, replicate 1 = 4
gukh #3: mitotic cells, replicate 1 = 11
CR33328 (retired record) #1: mitotic cells, replicate 1 = 11
CR33328 (retired record) #2: mitotic cells, replicate 1 = 8
CG13869 + CG11099 #1: mitotic cells, replicate 1 = 5
CG13869 + CG11099 #2: mitotic cells, replicate 1 = 7
